Drawing on article PMC7272575, this text covers binding for 1 molecule.

In this assay the target is T1, Hspa13 (mouse (endogenous in splenic B cells of C57BL/6 mice)) (UniProt Q8BM72).
T1 sequence: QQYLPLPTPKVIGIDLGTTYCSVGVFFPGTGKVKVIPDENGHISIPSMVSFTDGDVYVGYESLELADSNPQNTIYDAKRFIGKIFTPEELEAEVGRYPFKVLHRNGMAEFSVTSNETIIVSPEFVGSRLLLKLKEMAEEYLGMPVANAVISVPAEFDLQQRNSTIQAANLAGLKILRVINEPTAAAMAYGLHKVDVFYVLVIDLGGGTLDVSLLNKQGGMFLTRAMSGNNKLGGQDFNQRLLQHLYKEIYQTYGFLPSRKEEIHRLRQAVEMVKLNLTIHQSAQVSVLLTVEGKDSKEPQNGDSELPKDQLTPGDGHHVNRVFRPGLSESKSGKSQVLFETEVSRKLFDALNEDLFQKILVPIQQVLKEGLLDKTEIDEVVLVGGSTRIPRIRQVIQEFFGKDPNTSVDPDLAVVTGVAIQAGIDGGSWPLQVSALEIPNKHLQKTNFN
The assay can be described thus: affinity purification with mass spectrometry; lysate (IP Lysis Buffer) of mouse splenic B220+ B cells stimulated 3 days with 10 ug/ml LPS; anti-Hspa13 antibody and protein A-sepharose, control IgG; washed 6 times with PBS; bands cut from silver-stained SDS-PAGE gel, trypsin, LC-MS/MS.

Results are given in words; binding and its absence hold for the method and conditions named. In cells and extracts the contact can be indirect. These calls come from enrichment with a bait or labelling near it, and not all partners need be listed.

B1: Bcap31 (protein, UniProt Q61335 1-245)
chain: MSLQWTTVATFLYAEVFAVLLLCIPFISPKRWQKVFKSRLVELVVTYGNTFFVVLIVILVLLVIDAVREILKYDDVTEKVNLQNNPGAMEHFHMKLFRAQRNLYIAGFSLLLSFLLRRLVTLISQQATLLASNEAFKKQAESASEAAKKYMEENDQLKKGAAEDGDKLDIGNTEMKLEENKSLKNDLRKLKDELASTKKKLEKAENEALAMQKQSEGLTKEYDRLLEEHAKLQASVRGPSVKKEE
For the molecule B1, the binding result was “binds”.
